Test results taken from patent US7314863B2, “Cyclic peptidomimetic urokinase receptor antagonists” (Wilex AG, priority 1999, dated 2008).
Some entries share one result that the patent states for a list of compounds. Positions of bridges follow the written chain, without caps; N, C: chain ends. Non-standard residues stand in square brackets, D forms with d. Residues, ends and D or L forms follow the SMILES beside them. Nle = CCCC[C@H](N)C(=O)O

Test system: aorta rings
Assay: Rat aorta ring in Matrigel, in-vitro tissue culture angiogenesis assay
Assay type: cell-based, Wistar rats
Details: for concentration range in which capillary formation was inhibited: 5 days culture; for factor of reduction of capillary budding (number and length of newly formed capillaries): peptide concentration 30 μg/ml, compared with inactive control peptides

Row | SMILES | concentration range in which capillary formation was inhibited | factor of reduction of capillary budding (number and length of newly formed capillaries)
1 | CCCC[C@@H]1NC(=O)[C@H](CC(N)=O)NC(=O)[C@H](N)CSSC[C@@H](C(=O)N[C@@H](Cc2c[nH]c3ccccc23)C(=O)O)NC(=O)[C@H]([C@@H](C)CC)NC(=O)[C@H](CC(N)=O)NC(=O)[C@H](CO)NC(=O)[C@H](Cc2ccccc2)NC(=O)[C@H](Cc2ccc(O)cc2)NC1=O [cyclo[21,29][D-Cys^21Nle^23Cys^29]-uPA21-30] (H-[dC]N[Nle]YFSNICW-OH; disulfide 1-9; N-terminus assumed) | ≥ 1 µg/mL | 3 to 4
2 | CC[C@H](C)[C@@H]1NC(=O)[C@H](CC(N)=O)NC(=O)[C@H](CO)NC(=O)[C@H](Cc2ccccc2)NC(=O)[C@H](Cc2ccc(O)cc2)NC(=O)[C@H](CCCCN)NC(=O)[C@H](CC(N)=O)NC(=O)[C@H](N)CSSC[C@@H](C(=O)N[C@@H](Cc2c[nH]c3ccccc23)C(=O)O)NC1=O [cyclo[21,29][D-Cys^21,Cys^29]uPA21-30] (H-[dC]NKYFSNICW-OH; disulfide 1-9; N-terminus and C-terminus assumed) | ≥ 1 µg/mL | 3 to 4
